Experimental data published in patent US9943592B2, “Vaccine adjuvants from self-assembling peptides” (priority 2011, dated 2018).
Not every detail of the peptide structures is certain; ends, links or a residue may be inferred. Ends that are not written are not given here.

What was measured:
H1N1 virus = format: in vivo, C57/BL6 mice; conditions: compared with commercial adjuvant
[1] = system: swine H1N1 influenza virus; design: species or system C57/BL6 mice; conditions: mouse, in vivo
[2] = hydrogel formation of peptide solutions (ion or pH trigger); format: physicochemical; conditions: for hydrogel formation in Ca^2+ solution: 0.005M peptide concentration
Description: The synthesized peptide was dissolved in DI water to a concentration of 5 mM by adjusting the pH to 8.0-10.0 with 1 M NaOH (Sigma). The h5e acidic solution and acidic h9e hydrogel were made by adjusting the pH to 4.0 with 1 M HCl (Sigma). The h9e Ca^2+ hydrogel was prepared by adding CaCl2 to a basic h9e peptide solution (molar ratio of peptide and Ca^2+ was 1:10, final pH was 7.0 to 9.0). The same method was used to prepare the h5e Ca^2+ solution.

[3] = solubility, stability and morphology of peptide and hydrogel; format: physicochemical; conditions: in the presence of antigen
PRRSV [4] = assay: dynamic viremia after vaccination in pigs; format: in vivo
Description: (§1) A stock solution of h9e peptide (concentration 1.75% by weight in water) was prepared. For the active agent, 2X Ingelvac PRRS MLV (Boehringer Ingelheim Vetmedica, St. Joseph, Mo.) was used. The vaccine was rehydrated by adding half of the contents of the accompanying liquid diluent to the vial containing the virus. Medium was then prepared by adding 0.3 ml bovine serum to 7.2 ml MEM medium (ion source). Next, 5 ml of the peptide stock solution was added to the medium and mixed well. This was then mixed with the vaccine solution. The final concentration of h9e as adjuvant was 0.35% by weight, and the final concentration of serum was […] by weight.
(§2) Vaccines were also prepared using a commercially-available adjuvant, Montanide™ Gel 01 (aqueous polymeric gel veterinary adjuvant, Seppic Inc., Fairfield, N.J.), or a published peptide hydrogel, designated herein as A1/2 (SEQ ID NO:28, corresponding to the N-terminal region of mineral directing gelator (MDG) 1; Gungormus, et al., Biomaterials 31 (2010) 7266-7274).
(§3) 55 PRRSV serum negative pigs were initially divided into 5 vaccination groups and vaccinated on Day 0. […]
(§4) At Day 0, all pigs were weighed, and weight was monitored weekly and recorded on Days 7, 14, 21, and 28. […] Body temperature and clinical signs were monitored daily and recorded. […]

PRRSV [5] = assay: dynamic viremia after challenge in pigs; format: in vivo; conditions: challenge with VR2332 or MN184a on day 28
Description: as §1, §2, §3, §4

PRRSV [6] = assay: IDEXX ELISA Ab titer in pigs; format: in vivo
Description: as §1, §2
55 PRRSV serum negative pigs were initially divided into 5 vaccination groups and vaccinated on Day 0. The pigs were then challenged on day 28 with a control (no challenge) or one of two PRRSV strains: PRRSV VR-2332, the parental strain of the Ingelvac PRRS MLV vaccine, or PRRSV MN 184a, a highly pathogenic isolate able to induce severe clinical signs that is heterologous to both PRRSV VR-2332 and the vaccine virus. The challenge dose of VR-2332 was 2-fold that of MN184a. The test groups are outlined in the Table below.
At Day 0, all pigs were weighed, and weight was monitored weekly and recorded on Days 7, 14, 21, and 28. Prior to vaccination a blood sample was taken from each pig for serum isolation. Body temperature and clinical signs were monitored daily and recorded. Blood was collected on Days 7, 14, 21, and 28 after vaccination for serum. Blood was collected weekly after challenge. On Day 42, the pigs were euthanized and necropsy was performed on all pigs to collect blood, lung, tonsil and lymph node samples for PBMC, serum and histopathology analysis. 3. Data Analysis

VR2332 = assay: virus neutralizing Ab titer (VNT) to VR2332; format: in vivo; conditions: pigs challenged with MN184a and VR2332
lymphocyte populations = assay: frequency of different lymphocyte populations in blood, TBLN and lung; format: in vivo, pigs
IL-10 = IL-10 protein level by ELISA on Day 42; format: in vivo, pigs; conditions: serum and supernatant of cultured PBMCs or Lung MNCs re-stimulated with PRRSV
IL-4 = IL-4 protein level by ELISA on Day 42; format: in vivo, pigs
[7] = lungs, two weeks after challenge
[8] = tracheobronchial lymph nodes, two weeks after challenge
[9] = two weeks after homologous or heterologous challenge

Sequence: FLIVIGSIIGPGGDGPGGD [h9e, FLIVIGSIIGPGGDGPGGD]
- HAI titer / H1N1 immune response higher than with commercial oil-based adjuvant (H1N1 virus): about 70%
- ability to induce H1N1-specific IgG1 antibody response compared with commercial adjuvant [1]: similar
- hydrogel formation in Ca^2+ solution [2]: formed a hydrogel
- water content at which hydrogel forms ([2]; Ca^2+ solution and acidic pH): more than 99.5%
- behaviour when pH adjusted back to acidic [2]: formed a hard hydrogel
- low concentration at which hydrogel forms [3]: 0.05%
- maximum viremia relative to MLV group (PRRSV [4]; after vaccination): 2 folds
- maximum viremia after vaccination (PRRSV [4]; after vaccination on Day 0): 1×10^4 TCID50/mL
- viremia after challenge (PRRSV [5]): lower
- ELISA Ab titer versus MLV-only group 2 weeks after VR2332 challenge (PRRSV [6]; 2 weeks post-challenge): the same
- pigs converted PRRSV Ab positive on Day 14 (PRRSV [6]; Day 14 after vaccination): 9 out of 10
- ELISA Ab titer versus MLV-only group one week after VR2332 challenge (PRRSV [6]; one week post-challenge): slightly higher
- titer to homologous VR2332 challenge relative to MN184a virus challenge (VR2332): higher
- CD4^+CD8^+ T cells (T memory cells) population in blood on Day 28 (lymphocyte populations; Day 28): increase
- frequency of T-regulatory cells in blood on Day 28 (lymphocyte populations; Day 28): worked better
- CTL percentage in lung on Day 42 (lymphocyte populations; [7]): increased
- T memory cell percentage in lung on Day 42 (lymphocyte populations; [7]): increased
- T-regulatory cell percentage in lung on Day 42 (lymphocyte populations; [7]): reduced
- CTL percentage in TBLN on Day 42 (lymphocyte populations; [8]): increased
- T memory cell percentage in TBLN on Day 42 (lymphocyte populations; [8]): increased
- T-regulatory cell percentage in TBLN on Day 42 (lymphocyte populations; [8]): reduced
- CTL percentage in blood on Day 42 (lymphocyte populations; [9]): increased
- T memory cell percentage in blood on Day 42 (lymphocyte populations; [9]): increased
- T-regulatory cell percentage in blood on Day 42 (lymphocyte populations; [9]): further reduced
- IL-10 protein levels (IL-10): reduce
- serum IL-4 level, MN184a challenge (IL-4; challenged with MN184a virus): not
- serum IL-4 level, VR2332 challenge (IL-4; challenged with homologous VR2332 virus): increase

Sequence: FLIVIGPGGDGPGGD [h5e, FLIVIGPGGDGPGGD]
- hydrogel formation in Ca^2+ solution [2]: precipitated
- behaviour when pH adjusted back to acidic [2]: precipitated
